This is an account of results in publication PMC7819943, “Rice protein-binding microarrays: a tool to detect cis-acting elements near promoter regions in rice”.

Sequences of proteins named here, by UniProt entry; tags and fusion partners are left off.
UniProt Q0JBA9, entry or part of it: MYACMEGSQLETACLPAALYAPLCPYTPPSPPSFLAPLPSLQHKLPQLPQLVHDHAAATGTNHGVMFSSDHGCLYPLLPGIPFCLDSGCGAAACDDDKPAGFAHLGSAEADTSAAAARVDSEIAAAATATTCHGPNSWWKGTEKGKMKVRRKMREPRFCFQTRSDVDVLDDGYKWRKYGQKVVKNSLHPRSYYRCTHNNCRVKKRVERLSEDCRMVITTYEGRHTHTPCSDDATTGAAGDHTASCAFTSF

Some of the results follow.

The target in this assay is OsWRKY34 (Oryza sativa, UniProt Q0JBA9 1-250). Description: protein-binding microarray (RPBM); PBS, 2% BSA, 51.3 ng/ul salmon testes DNA, 50 uM zinc acetate, 200 nM TF, 25 C, 1 h; high values mean tight binding. Particulars: protein: recombinant; tags: N-terminal polyhistidine and DsRed monomer fusion (pET32a); label: CyDye5-dUTP incorporated in the synthesized complementary strand; 3' TTTTT single-stranded linker to array surface; dsDNA, one strand shown. The gist of the method:
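Polyhistidine-tagged DsRed fusions of transcription factors, joined at the N-terminus, were expressed in E. coli BL21-CodonPlus and isolated on Ni–NTA. They were incubated at 200 nM for 1 h at 25 °C on a custom Agilent array, double-stranded and BSA-blocked, in PBS with 2% BSA, salmon testes DNA and 50 µM zinc acetate. The binding signal is per-feature fluorescence intensity (arbitrary units) read on an Axon 4000B scanner after washing.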
Take “TATAATTATGTCATCACATCAGCACCATATATATGGAATCCGGAGTCACCTAGTGCAG”: the binding signal was 8590 fluorescence intensity (a.u.).
Regarding “CTTCGTCTCCGCTCCTCTCCGCCGCCTCGTCTCGTCGCCTCGGAGTCACCTAGTGCAG”, the binding signal is 8430 fluorescence intensity (a.u.).
Consider “ACAGCCTCTACATTTTACTTGTTTCATAATCCTGTGTTCTCGGAGTCACCTAGTGCAG”, for which the binding signal was 13500 fluorescence intensity (a.u.).
To “ATCTGTTCGTGGGTTGCTTGCTCAGTCGACCAATCGTTGACGGAGTCACCTAGTGCAG” belongs 19200 fluorescence intensity (a.u.); to “CTCCATCCGCTCCGTCCGCCGAGACGAGATCCCTTTCCTCCGGAGTCACCTAGTGCAG”, 9010 fluorescence intensity (a.u.); to “CTCTCTGGGTTGACTTACCGTTTTAGACAAGGGCACGGTCCGGAGTCACCTAGTGCAG”, 8990 fluorescence intensity (a.u.).
For “TCGATTCCCGGGTGCACTCGCCGCCAACACCTCACCCGCCCGGAGTCACCTAGTGCAG”, the binding signal was 8790 fluorescence intensity (a.u.).
In the case of “ACAGCGACGGGAGGGGAGGGATCGCGCGTTCTCGATTCGGCGGAGTCACCTAGTGCAG”, the binding signal was 10500 fluorescence intensity (a.u.).
As for “CAATAGTTCATATACTAGTTGAATGCCTGTGCCTTCCAACCGGAGTCACCTAGTGCAG”, the binding signal is 8580 fluorescence intensity (a.u.).
As to “GGAAGATTGTTCTCTTCGGATCATTGCTGTCTGGGGTATGCGGAGTCACCTAGTGCAG”, the binding signal was 10700 fluorescence intensity (a.u.).
In the case of “GGGTGTTGTCGTTCCTTAAGGGCTAAGCTGTTGGAAACAACGGAGTCACCTAGTGCAG”, the binding signal was 8330 fluorescence intensity (a.u.).
With “CGGGTGTTGGGTGTTTTCAACTCTAATTCGGGCGAGCAATCGGAGTCACCTAGTGCAG” the figure was 11100 fluorescence intensity (a.u.); with “TTCTTTTTTCTTTTACGCGATATACTCGACGACTACTCCGCGGAGTCACCTAGTGCAG”, 10200 fluorescence intensity (a.u.).
“ACCCATGATATTCACTGAAACTTCTGATATTGACCATGACCGGAGTCACCTAGTGCAG”: the binding signal was 8430 fluorescence intensity (a.u.).
As for “GCCTTTTTTCCTTTGTCTTTTTCCGGCCCGCGTTCTTTTTCGGAGTCACCTAGTGCAG”, the binding signal was 17400 fluorescence intensity (a.u.).
On to “TTTATAACTCCTATACGTTTGTCCCTATAAACAAGATACACGGAGTCACCTAGTGCAG”, for which the binding signal is 8500 fluorescence intensity (a.u.).
As for “ACTTACTTTCGGCCATTATTCATGTAGTAGTAGGATACTTCGGAGTCACCTAGTGCAG”, the binding signal is 8030 fluorescence intensity (a.u.).
With “GTCCGTTCACCTCTCCGTAACCGTGCTCCAGCCGCTTCTTCGGAGTCACCTAGTGCAG” the figure was 9570 fluorescence intensity (a.u.); with “TTATTTTACGACCTTTTCTTTTAAATCGCTATGAATGTGTCGGAGTCACCTAGTGCAG”, 8800 fluorescence intensity (a.u.); with “AGTGAGTGGTTTTCTCTTGACAAATCTTTTTTATACTATACGGAGTCACCTAGTGCAG”, 8480 fluorescence intensity (a.u.).
To “TGGTGGGTGGTTGATTGATTGTTCTTTCCTTCCTCGTGAGCGGAGTCACCTAGTGCAG” belongs 11800 fluorescence intensity (a.u.); to “CCCCGCTTTCCCGCGGCTTAAAAACCTTTCCATCTCCAACCGGAGTCACCTAGTGCAG”, 9730 fluorescence intensity (a.u.).
To “TGCAATGCATCTCCATGAATATTTGTTTGTATTTAAGTCCCGGAGTCACCTAGTGCAG” belongs 9350 fluorescence intensity (a.u.).
As to “ACGTGCGCCAACTTAATCTTCATCTTCATCAGTTTTAAACCGGAGTCACCTAGTGCAG”, the binding signal is 8830 fluorescence intensity (a.u.).
Consider “ATTATCTATTTTGGCCAATTGTATTATTTCCTTGCGTATTCGGAGTCACCTAGTGCAG”, for which the binding signal is 14600 fluorescence intensity (a.u.).
“TGCCAGTGCTATCCGTCGCCACCTACCACCTTACAACGGTCGGAGTCACCTAGTGCAG”: the binding signal is 9400 fluorescence intensity (a.u.).
With “TTTTTTCCATCCAGCTATTCAAGATGCTAGTGTTTTTTTTCGGAGTCACCTAGTGCAG”, the binding signal is 10400 fluorescence intensity (a.u.).
In the case of “CGTAGGCCACGCCACCTCACCCTGTTGACCGAGTCAAACCCGGAGTCACCTAGTGCAG”, the binding signal was 11900 fluorescence intensity (a.u.).
To “ACGACGAGTACACCATTTCCTGTCCCACGGCATTAACCGACGGAGTCACCTAGTGCAG” belongs 11700 fluorescence intensity (a.u.); to “GATTGCTTTGTGGGTGTATGGTTCATCTTCAATGGTTTACCGGAGTCACCTAGTGCAG”, 8030 fluorescence intensity (a.u.).
With “CTCGCCGCCGTCCTGCCCGCCTCCACCCTTTCGCCTCCTCCGGAGTCACCTAGTGCAG” the figure was 8200 fluorescence intensity (a.u.); with “GAAGCCGCAGCGGTGCGTTTCCATGTGGCGAATATTTCCACGGAGTCACCTAGTGCAG”, 8250 fluorescence intensity (a.u.).
For “TTTTCTTTTTCTTTTTTCTGTTCTTCAGGCAACAAACTGGCGGAGTCACCTAGTGCAG”, the binding signal was 9200 fluorescence intensity (a.u.).
For the sequence “ATATATATTGTGGATACCTTTCTGTAAAGTCTCTTTCAAACGGAGTCACCTAGTGCAG”, the binding signal is 10800 fluorescence intensity (a.u.).
With “ACTTGATTTTCTTGATTTACGAGATGGAGTTTTGCCTGTTCGGAGTCACCTAGTGCAG”, the binding signal is 9080 fluorescence intensity (a.u.).
With “GCGGCCGCGCGATTTCTAGGGTTTTGGGTCCTTTGCTCGGCGGAGTCACCTAGTGCAG” the figure was 8270 fluorescence intensity (a.u.).
Take “ACCGTGGGCAATGTTTTCAAAGTTTGACCGCATTGTTCTGCGGAGTCACCTAGTGCAG”: the binding signal was 9490 fluorescence intensity (a.u.).
With “CGCTTTTCTACCTCAACACGCCTCGTTCTTCTTCTTCTCTCGGAGTCACCTAGTGCAG” the figure was 9080 fluorescence intensity (a.u.); with “CCTCCGTTTCATATTATAAGACTTTCTGGCATTGCCAACACGGAGTCACCTAGTGCAG”, 8950 fluorescence intensity (a.u.).
“ATACTTCCTTTCTGTTTCCAGTGTCTCTCTTCATGCACTCCGGAGTCACCTAGTGCAG”: the binding signal was 10700 fluorescence intensity (a.u.).
For the sequence “GGATTTATGTAATTTTTTTCTCTACGTATATATTCCATCACGGAGTCACCTAGTGCAG”, the binding signal is 10900 fluorescence intensity (a.u.).
“CCTGCACCTTGTGGCGGCCGTAGCTCGCTCTCGCTCTCGCCGGAGTCACCTAGTGCAG”: the binding signal is 9150 fluorescence intensity (a.u.).
“CTGACTCGGACGACGACATCGCCTTCGCCGCTTTCACAGTCGGAGTCACCTAGTGCAG”: the binding signal is 8040 fluorescence intensity (a.u.).
With “TCGCCCTTTTTTACCGCGTTGACGGAATCAGATTCGTTTTCGGAGTCACCTAGTGCAG” the figure was 8370 fluorescence intensity (a.u.).
For the sequence “CACTTTCTGTTTCTGACACTCTTGCCCAAGTTTCCTAGTTCGGAGTCACCTAGTGCAG”, the binding signal is 13600 fluorescence intensity (a.u.).
“ATGTCATGTCATGTCGCATATCTCCCATGTCTTGGCACGACGGAGTCACCTAGTGCAG”: the binding signal was 9540 fluorescence intensity (a.u.).
“CCTTCCTTTCCAGCTCGGTTTGCTAACTCATGGTCTCCTCCGGAGTCACCTAGTGCAG”: the binding signal is 9750 fluorescence intensity (a.u.).
For “CCACTAGGAGTGATAATTCTTTGATTTCATACCACTTTCTCGGAGTCACCTAGTGCAG”, the binding signal was 8310 fluorescence intensity (a.u.).
Turning to “GTCTCGTCTCGTCTCGTCTCGTCTCGTGTCGCCTCAACCCCGGAGTCACCTAGTGCAG”, the binding signal is 10500 fluorescence intensity (a.u.).
Consider “TAAACAAAGCTTAATTTCACTTTTGTCGATTTATTTTAAACGGAGTCACCTAGTGCAG”, for which the binding signal was 8220 fluorescence intensity (a.u.).
With “CCACCGAAAAATGTTTCACCTAGTATACTTACAATGTTTCCGGAGTCACCTAGTGCAG” the figure was 8500 fluorescence intensity (a.u.); with “ATAAAATATACGACACACTTATACTTACACTCAATTTTCTCGGAGTCACCTAGTGCAG”, 9070 fluorescence intensity (a.u.); with “CCCTTTTTTATTATTCGTATTTTATGTTATATGTATATTTCGGAGTCACCTAGTGCAG”, 9090 fluorescence intensity (a.u.).
With “AGTAGTGTTGAATCTGAGTTATGCTGTGGGATATCGTCGACGGAGTCACCTAGTGCAG” the figure was 8340 fluorescence intensity (a.u.).
